Binding signal data for 39 sequences are collected here from publication PMC7862700.

This is one part of the list. The source does not settle which construct or isoform was used.

For the assay, the target named is T1, ETS1 (UniProt P14921).
T1 sequence: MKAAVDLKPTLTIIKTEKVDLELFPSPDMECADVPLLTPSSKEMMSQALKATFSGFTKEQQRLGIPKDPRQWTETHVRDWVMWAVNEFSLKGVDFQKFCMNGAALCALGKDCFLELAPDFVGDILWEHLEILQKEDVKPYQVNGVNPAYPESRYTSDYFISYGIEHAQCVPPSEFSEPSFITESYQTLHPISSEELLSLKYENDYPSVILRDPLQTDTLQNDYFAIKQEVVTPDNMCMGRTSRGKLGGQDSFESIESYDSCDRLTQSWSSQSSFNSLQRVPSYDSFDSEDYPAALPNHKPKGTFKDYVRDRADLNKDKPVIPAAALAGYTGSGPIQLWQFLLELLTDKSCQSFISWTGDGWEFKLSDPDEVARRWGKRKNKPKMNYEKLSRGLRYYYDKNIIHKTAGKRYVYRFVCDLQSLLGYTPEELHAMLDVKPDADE
The assay can be described thus: DAPPL (digital affinity profiling via proximity ligation, sequencing). The following applies: 10 mM Tris-HCl pH 7.5, 50 mM NaCl, 1 mM DTT, 4% glycerol, room temperature, 30 min; GST-TFs on glutathione beads, 16-mer random dsDNA library, 0.1% …; high values mean tight binding; double strand, one strand shown; scale: fold enrichment (6-mer frequency, TF over GST control).
In the case of TCCCAT, the binding signal was determined as 1.37.

In turn, GGCACT showed a binding signal of 1.2.

In the case of AAACTC, the binding signal came to 1.19.

Turning to AGCGTC, the binding signal came out at 0.96.

In the case of AGTACA, the binding signal stood at 1.08.

Turning to CAACCC, the binding signal was 1.26.

GTCGAC registered a binding signal of 1.06.

With CCACTC, the binding signal amounted to 1.27.

TGGTGC yielded a binding signal of 1.14.

Sequence TAGTGT showed a binding signal of 1.06.

With CGCGCC, the binding signal was found to be 1.14.

Regarding TCGTAT, the binding signal was determined as 0.974.

In turn, AAATAC yielded a binding signal of 1.48.

With GTAGTT, the binding signal turned out to be 1.07.

Turning to ACTCAC, the binding signal stood at 1.17.

CCAACC returned a binding signal of 1.08.

Sequence ATTAAG came in with a binding signal of 1.1.

As for CAGCAT, the binding signal was 0.927.

The sequence ATTAAC registered a binding signal of 1.25.

TATCGC yielded a binding signal of 1.22.

In turn, TTAAAT returned a binding signal of 1.13.

Sequence ACGATG had a binding signal of 1.21.

On to TACGCA, for which the binding signal is 1.18.

In the case of CATGAT, the binding signal was determined as 1.16.

In turn, ATGTTT yielded a binding signal of 1.46.

With TTCCCG, the binding signal was 1.79.

With TCCACC, the binding signal amounted to 1.21.

Sequence GCAATA had a binding signal of 1.04.

Consider TTGTAG, for which the binding signal was determined as 1.2.

Turning to CCCGAA, the binding signal was determined as 1.41.

As to ATCCTA, the binding signal came to 1.34.

The sequence TGGCTC had a binding signal of 1.37.

Take AATCCG: the binding signal came out at 1.5.

As for CCTGCT, the binding signal stood at 1.55.

Sequence CGTATA gave a binding signal of 1.18.

Sequence TCCCAG registered a binding signal of 1.06.

As to CTGCTT, the binding signal amounted to 1.6.

ATGTAG displayed a binding signal of 1.09.

CCCTGT registered a binding signal of 1.22.
